Assay results: patent US20210171652A1
Results are given in words; binding and its absence hold for the method and conditions named. Some binding calls cover weakened binding; strength is not graded here.

The chains behind the UniProt entries cited, without tags or fusion partners. Where a name states a change or a piece, a line headed by the entry shows the natural chain unless it says otherwise.
UniProt P18577: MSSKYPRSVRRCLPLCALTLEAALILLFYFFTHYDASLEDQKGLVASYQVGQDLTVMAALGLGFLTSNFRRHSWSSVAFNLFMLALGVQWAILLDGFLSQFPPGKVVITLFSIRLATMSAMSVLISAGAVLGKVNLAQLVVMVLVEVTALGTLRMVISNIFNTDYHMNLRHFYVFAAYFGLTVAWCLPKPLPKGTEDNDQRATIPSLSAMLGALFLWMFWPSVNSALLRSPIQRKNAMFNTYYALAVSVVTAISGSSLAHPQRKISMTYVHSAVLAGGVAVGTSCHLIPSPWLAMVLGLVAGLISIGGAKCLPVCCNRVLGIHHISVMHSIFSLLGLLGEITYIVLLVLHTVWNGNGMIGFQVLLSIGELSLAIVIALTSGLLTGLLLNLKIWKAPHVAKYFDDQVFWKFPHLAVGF

Target: KP3-17 (anti-Rh17), as used in Example 8
Assay: peptide competition, flow cytometry on human erythrocytes

B1: linear peptide corresponding to the 6th extracellular loop of human RhCE (peptide, UniProt P18577 346-360, looked up)
peptide: LLVLHTVWNGNGMIG
In the case of B1, the binding is reported as “binds”.
